From patent US20210395406A1, “REVERSIBLE CROSS-LINKING SYSTEM FOR POLYVINYLAMINES” (SOLENIS TECHNOLOGIES, L.P., priority 2020, published 2021)

Assay: Determination of cross-linking time

SMILES: O=C1CCN(C(=O)C(=O)N2CCC(=O)CC2)CC1 [Example 1.1, 1,2-bis(4-oxopiperidin-1-yl)ethane-1,2-dione]
- Cross-linking time (polymer 2.1, pH 7, room temperature, molar ratio cross-linker/vinylamine units 0.5 mol %): 43 s
- Cross-linking time (polymer 2.1, pH 7, room temperature, molar ratio cross-linker/vinylamine units 1.0 mol %): 27 s
- Cross-linking time (polymer 2.1, pH 7, room temperature, molar ratio cross-linker/vinylamine units 2.0 mol %): 12 s
- Cross-linking time (polymer 2.2, pH 7, room temperature, molar ratio cross-linker/vinylamine units 1.0 mol %): 33 s
- Cross-linking time (polymer 2.2, pH 7, room temperature, molar ratio cross-linker/vinylamine units 2.0 mol %): 20 s
- Cross-linking time (polymer 2.3, pH 7, room temperature, molar ratio cross-linker/vinylamine units 1.0 mol %): 68 s
- Cross-linking time (polymer 2.3, pH 7, room temperature, molar ratio cross-linker/vinylamine units 2.0 mol %): 50 s
